In doi:10.1101/2020.11.18.388520:
These are yes or no findings as the source states them, for the method shown. In cells and extracts the contact can be indirect. Some binding calls cover weakened binding; strength is not graded here.

Assays:
[1] = target: Arabidopsis thaliana … DISEASE … 1 (AtADR1), wildtype (Arabidopsis thaliana) (UniProt Q9FW44); test: co-IP
[2] = target: Arabidopsis thaliana ADR1 D461V, autoactivated QHV mutant (Arabidopsis thaliana) (UniProt Q9FW44); test: co-IP

binding [1]	binding [2]	Binder
binds	–	Arabidopsis thaliana … DISEASE … 1 (AtADR1), wildtype (receptor, UniProt Q9FW44 1-787) MASFIDLFAGDITTQLLKLLALVANTVYSCKGIAERLITMIRDVQPTIREIQYSGAELSNHHQTQLGVFYEILEKARKLCEKVLRCNRWNLKHVYHANKMKDLEKQISRFLNSQILLFVLAEVCHLRVNGDRIERNMDRLLTERNDSLSFPETMMEIETVSDPEIQTVLELGKKKVKEMMFKFTDTHLFGISGMSGSGKTTLAIELSKDDDVRGLFKNKVLFLTVSRSPNFENLESCIREFLYDGVHQRKLVILDDVWTRESLDRLMSKIRGSTTLVVSRSKLADPRTTYNVELLKKDEAMSLLCLCAFEQKSPPSPFNKYLVKQVVDECKGLPLSLKVLGASLKNKPERYWEGVVKRLLRGEAADETHESRVFAHMEESLENLDPKIRDCFLDMGAFPEDKKIPLDLLTSVWVERHDIDEETAFSFVLRLADKNLLTIVNNPRFGDVHIGYYDVFVTQHDVLRDLALHMSNRVDVNRRERLLMPKTEPVLPREWEKNKDEPFDAKIVSLHTGEMDEMNWFDMDLPKAEVLILNFSSDNYVLPPFIGKMSRLRVLVIINNGMSPARLHGFSIFANLAKLRSLWLKRVHVPELTSCTIPLKNLHKIHLIFCKVKNSFVQTSFDISKIFPSLSDLTIDHCDDLLELKSIFGITSLNSLSITNCPRILELPKNLSNVQSLERLRLYACPELISLPVEVCELPCLKYVDISQCVSLVSLPEKFGKLGSLEKIDMRECSLLGLPSSVAALVSLRHVICDEETSSMWEMVKKVVPELCIEVAKKCFTVDWLDD
–	binds	Arabidopsis thaliana ADR1 D461V, autoactivated QHV mutant (receptor, UniProt Q9FW44 1-787) MASFIDLFAGDITTQLLKLLALVANTVYSCKGIAERLITMIRDVQPTIREIQYSGAELSNHHQTQLGVFYEILEKARKLCEKVLRCNRWNLKHVYHANKMKDLEKQISRFLNSQILLFVLAEVCHLRVNGDRIERNMDRLLTERNDSLSFPETMMEIETVSDPEIQTVLELGKKKVKEMMFKFTDTHLFGISGMSGSGKTTLAIELSKDDDVRGLFKNKVLFLTVSRSPNFENLESCIREFLYDGVHQRKLVILDDVWTRESLDRLMSKIRGSTTLVVSRSKLADPRTTYNVELLKKDEAMSLLCLCAFEQKSPPSPFNKYLVKQVVDECKGLPLSLKVLGASLKNKPERYWEGVVKRLLRGEAADETHESRVFAHMEESLENLDPKIRDCFLDMGAFPEDKKIPLDLLTSVWVERHDIDEETAFSFVLRLADKNLLTIVNNPRFGDVHIGYYDVFVTQHVVLRDLALHMSNRVDVNRRERLLMPKTEPVLPREWEKNKDEPFDAKIVSLHTGEMDEMNWFDMDLPKAEVLILNFSSDNYVLPPFIGKMSRLRVLVIINNGMSPARLHGFSIFANLAKLRSLWLKRVHVPELTSCTIPLKNLHKIHLIFCKVKNSFVQTSFDISKIFPSLSDLTIDHCDDLLELKSIFGITSLNSLSITNCPRILELPKNLSNVQSLERLRLYACPELISLPVEVCELPCLKYVDISQCVSLVSLPEKFGKLGSLEKIDMRECSLLGLPSSVAALVSLRHVICDEETSSMWEMVKKVVPELCIEVAKKCFTVDWLDD
